Measured values taken from PMC9700814.
These are yes or no findings as the source states them, for the method shown. Binding seen in cells or lysates may run through a third protein. Some binding calls cover weakened binding; strength is not graded here. Sequences can lack the tags named with a protein.

Amino acid sequences for entries named in this document (tags omitted).
UniProt Q9DC51: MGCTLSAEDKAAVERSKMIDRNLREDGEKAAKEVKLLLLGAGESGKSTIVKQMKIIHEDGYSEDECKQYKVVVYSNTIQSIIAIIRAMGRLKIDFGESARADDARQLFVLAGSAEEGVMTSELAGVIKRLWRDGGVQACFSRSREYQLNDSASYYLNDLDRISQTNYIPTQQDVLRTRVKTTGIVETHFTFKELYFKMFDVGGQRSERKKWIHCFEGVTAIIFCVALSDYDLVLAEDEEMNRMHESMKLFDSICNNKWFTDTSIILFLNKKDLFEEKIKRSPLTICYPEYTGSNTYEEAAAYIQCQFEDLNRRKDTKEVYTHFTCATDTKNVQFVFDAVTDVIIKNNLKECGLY

Target: T1, flag-GPSM1 (G-protein-signaling modulator 1) (UniProt Q6IR34)
T1 sequence: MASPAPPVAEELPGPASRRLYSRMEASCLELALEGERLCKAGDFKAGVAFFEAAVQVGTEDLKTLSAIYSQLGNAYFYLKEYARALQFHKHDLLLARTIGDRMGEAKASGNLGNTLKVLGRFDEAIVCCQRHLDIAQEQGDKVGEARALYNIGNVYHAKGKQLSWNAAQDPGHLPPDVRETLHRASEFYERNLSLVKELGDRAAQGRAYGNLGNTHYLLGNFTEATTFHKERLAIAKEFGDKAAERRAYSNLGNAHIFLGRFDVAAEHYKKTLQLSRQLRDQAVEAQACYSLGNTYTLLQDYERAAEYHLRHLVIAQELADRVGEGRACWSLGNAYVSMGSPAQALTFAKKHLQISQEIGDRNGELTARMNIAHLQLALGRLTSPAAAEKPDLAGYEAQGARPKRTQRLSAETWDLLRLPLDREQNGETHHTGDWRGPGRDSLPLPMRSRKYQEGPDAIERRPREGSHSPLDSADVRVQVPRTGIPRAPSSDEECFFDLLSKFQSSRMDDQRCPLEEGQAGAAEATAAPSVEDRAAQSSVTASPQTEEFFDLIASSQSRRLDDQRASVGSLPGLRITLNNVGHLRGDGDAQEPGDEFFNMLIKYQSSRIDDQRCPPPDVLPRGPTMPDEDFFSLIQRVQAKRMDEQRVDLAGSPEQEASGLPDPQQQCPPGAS
Experiment: co-IP; IP of flag with agarose-conjugated anti-DYKDDDDK affinity beads from lysates (IP buffer) of BMDMs transfected with Ad-flag-GPSM1 or Ad-Con, 4 °C overnight, with or without LPS stimulation; immunoblot for Gαi3

Substance: Gαi3 (from UniProt Q9DC51 1-354)
- binding: binds
